For at least one compound, name, drawing or mass did not settle the structure.
Target: T1, PDGF-BB (Homo sapiens, UniProt P01127)
T1 construct: host or cells: NIH 3T3 cells carry the receptor
Assay: Inhibition of [125I]-PDGF-BB binding to its receptor on NIH 3T3 cells
Conditions: 4° C.
Procedure: NIH 3T3 (PDGF) or NIH 3T3 cells overexpressing either EGFR (EGF), IGFR (IGF) or Flk-1 (VEGF), are incubated with [^125I]-PDGF, [^125I]-EGF, [^125I]-IGF or [^125I]-VEGF, respectively (50,000 cpm per well) and increasing concentrations of GFB-111 or GFB-116. Cells are incubated at 4° C. for 1-3 h. After discarding media, the cells are washed 3 times with PBS and three times with Tris 25 mM pH 8.0, 1% T-X-100, 10% glycerol, 1% SDS. Lysates plus wash are counted. Excess of cold growth factors is used to obtain non-specific binding levels.
Whether GFB 111 can block [^125I]-PDGF-BB specific binding in NIH 3T3 cells is determined by pre-treatment of the PDGF-BB with increasing concentrations of GFB-111. FIG. 2C illustrates that in the absence of GFB-111, [^125I]-PDGF-BB is bound by NIH3T3 cells. However, pre-treatment with increasing concentrations of GFB-111, results in a concentration-dependent decrease in PDGF-BB binding.

Protein sequences, listed by entry. Tags and fused reporters are not part of them. Residues count along the entry.
UniProt P01127, 82-190 limits assumed: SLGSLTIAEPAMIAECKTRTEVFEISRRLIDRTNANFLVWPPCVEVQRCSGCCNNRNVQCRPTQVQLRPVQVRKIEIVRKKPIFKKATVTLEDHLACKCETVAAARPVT

Q: CCCCOc1c2cc(C(=O)Nc3cc4cc(c3)C(=O)NCC(=O)N[C@@H](CC(=O)O)C(=O)NCC(=O)N[C@@H](Cc3ccc(O)cc3)C(=O)NC4)cc1Cc1cc(C(=O)Nc3cc4cc(c3)C(=O)NCC(=O)N[C@@H](CC(=O)O)C(=O)NCC(=O)N[C@@H](Cc3ccc(O)cc3)C(=O)NC4)cc(c1OCCCC)Cc1cc(C(=O)Nc3cc4cc(c3)C(=O)NCC(=O)N[C@@H](CC(=O)O)C(=O)NCC(=O)N[C@@H](Cc3ccc(O)cc3)C(=O)NC4)cc(c1OCCCC)Cc1cc(C(=O)Nc3cc4cc(c3)C(=O)NCC(=O)N[C@@H](CC(=O)O)C(=O)NCC(=O)N[C@@H](Cc3ccc(O)cc3)C(=O)NC4)cc(c1OCCCC)C2 [GFB-111] was tested. Which IC50 did it give?
A: 0.25 µM
